The values that follow come from article PMC5702903 (CPT: Pharmacometrics & Systems Pharmacology, 2017).

This data set can be described thus: Empirical plasma PK model. It counts as in vivo. Particulars: rat plasma PK model; parameter estimate (RSE, %).

As for `CC(C)NCC(O)COc1ccc(CC(N)=O)cc1` (stereo not shown) [Atenolol], the “VPL, distribution volume of the central compartment” value is 256 (27.0) mL.
With `CN1CC[C@]23c4c5ccc(O)c4O[C@H]2[C@@H](O)C=C[C@H]3[C@H]1C5` [Morphine], the “VPER1, distribution volume of the peripheral compartment 1” value is on record as 530 (9.10) mL; the “VPER2, distribution volume of the peripheral compartment 2” value is 1,200 (10.8) mL; the “VPL, distribution volume of the central compartment” value is listed as 152 (11.1) mL.
